Strings that start with PEPTIDE1 are HELM notation: dots part the residues, brackets hold end groups and non-standard residues. No end group written: not given here.
Assay: general procedure: Fmoc solid-phase peptide synthesis; 2-CTA resin, degree of substitution 0.93 mmol/g, prepared into CTC resin (Examples 4-7)
Conditions: whole synthesis, detection wavelength 220 nm

Row | Substance | final HPLC purity
1 | Ala-Val-Ser-Glu-His-Gln-Leu-Leu-His-Asp-Lys-Gly-Lys-Ser-Ile-Gln-Asp-Leu-Arg-Arg-Arg-Glu-Leu-Leu-Glu-Lys-Leu-Leu-Ala-Lys-Leu-His-Thr- Ala-Tyr-Arg-Gly-Phe-Gly-Gly (AVSEHQLLHDKGKSIQDLRRRELLEKLLAKLHTAYRGFGG; The sequence is synthesized) | 96.1%
2 | PEPTIDE1{A.V.S.E.H.Q.L.L.H.D.K.G.K.S.I.Q.D.L.R.R.R.E.L.L.E.K.L.L.[NMeAla].K.L.H.T.A.Y.G.F.G.G}$$$$V2.0 | 95.8%
3 | PEPTIDE1{A.V.S.E.H.Q.L.L.H.D.K.G.K.S.I.Q.D.L.R.R.R.E.L.L.E.K.L.L.[Aib].K.L.H.T.A.Y.G.F.G.G}$$$$V2.0 | 95.8%
4 | AVSEHQLIHDKGKSIQELRRRFFLHHLLAEIHTAYGFGG | 94.8%

— patent US20210107953A1 (SHAANXI MICOT TECHNOLOGY LIMITED COMPANY, priority 2019, published 2021)
